# This continues a long series; more values of the same kind are listed elsewhere.
# System: revascularization, unstable angina requiring hospitalization, MI, all causes of death, or stroke
# Assay: PROVE IT-TIMI 22: SNP by treatment interaction (high-dose atorvastatin vs standard-dose pravastatin), logistic regression (synergy index), primary composite endpoint
# Type: in vivo, human
smiles,measurement,setting,value
"CC(C)c1c(C(=O)Nc2ccccc2)c(-c2ccccc2)c(-c2ccc(F)cc2)n1CC[C@@H](O)C[C@@H](O)CC(=O)O [Atorvastatin, atorvastatin]",OR,"rs10784891, allele C, ADD, Imputed, atorvastatin vs pravastatin",0.7472
same,OR,"rs10784891, allele C, DOM, Imputed",0.7374
same,OR,"rs10784891, allele C, DOM, Imputed, atorvastatin vs pravastatin",0.7374
same,OR,"rs10787923, allele G, DOM, Imputed",1.448
same,OR,"rs10787923, allele G, DOM, Imputed, atorvastatin vs pravastatin",1.448
same,OR,"rs10787924, allele T, DOM, Imputed, atorvastatin vs pravastatin",1.341
same,OR,"rs10787949, allele A, DOM, Imputed",1.352
same,OR,"rs10787949, allele A, DOM, Imputed, atorvastatin vs pravastatin",1.352
same,OR,"rs10787951, allele G, DOM, Imputed",1.349
same,OR,"rs10787951, allele G, DOM, Imputed, atorvastatin vs pravastatin",1.349
same,OR,"rs10787983, allele C, DOM, Imputed",1.351
same,OR,"rs10787983, allele C, DOM, Imputed, atorvastatin vs pravastatin",1.351
same,OR,"rs10788380, allele C, ADD, Imputed",1.318
same,OR,"rs10788380, allele C, DOM, Imputed",1.663
same,OR,"rs10794733, allele C, ADD, Imputed, atorvastatin vs pravastatin",0.6594
same,OR,"rs10814418, allele G, DOM, Imputed",1.184
same,OR,"rs10818280, allele C, DOM, Imputed, atorvastatin vs pravastatin",0.6208
same,OR,"rs10831417, allele A, ADD, Imputed",1.151
same,OR,"rs10860586, allele A, ADD, Imputed, atorvastatin vs pravastatin",0.9019
same,OR,"rs10870473, allele A, DOM, Imputed, atorvastatin vs pravastatin",1.887
same,OR,"rs10871302, allele A, DOM, Imputed",2.011
same,OR,"rs10877463, allele C, DOM, Imputed",0.5826
same,OR,"rs10877468, allele C, DOM, Imputed",0.5848
same,OR,"rs10879240, allele C, ADD, Imputed",0.7296
same,OR,"rs10879240, allele C, ADD, Imputed, atorvastatin vs pravastatin",0.7296
same,OR,"rs10879242, allele A, ADD, Imputed, atorvastatin vs pravastatin",0.7715
same,OR,"rs10879242, allele A, DOM, Imputed",0.7102
same,OR,"rs10879242, allele A, DOM, Imputed, atorvastatin vs pravastatin",0.7102
same,OR,"rs10879245, allele G, ADD, Imputed, atorvastatin vs pravastatin",0.7715
same,OR,"rs10879245, allele G, DOM, Imputed",0.7102
same,OR,"rs10879245, allele G, DOM, Imputed, atorvastatin vs pravastatin",0.7102
same,OR,"rs10879249, allele T, ADD, Imputed, atorvastatin vs pravastatin",0.7823
same,OR,"rs10879249, allele T, DOM, Imputed",0.7247
same,OR,"rs10879249, allele T, DOM, Imputed, atorvastatin vs pravastatin",0.7247
same,OR,"rs10886429, allele A, DOM, Imputed, atorvastatin vs pravastatin",1.296
same,OR,"rs10886449, allele G, DOM, Imputed, atorvastatin vs pravastatin",1.337
same,OR,"rs10886451, allele G, DOM, Imputed, atorvastatin vs pravastatin",1.337
same,OR,"rs10886456, allele G, DOM, Imputed, atorvastatin vs pravastatin",1.337
same,OR,"rs10886463, allele C, DOM, Imputed",1.352
same,OR,"rs10886463, allele C, DOM, Imputed, atorvastatin vs pravastatin",1.352
same,OR,"rs10886465, allele A, DOM, Imputed",1.355
same,OR,"rs10886465, allele A, DOM, Imputed, atorvastatin vs pravastatin",1.355
same,OR,"rs10902437, allele G, ADD, Imputed",1.494
same,OR,"rs10922903, allele C, REC, Imputed, atorvastatin vs pravastatin",0.9678
same,OR,"rs10941126, allele G, ADD, Imputed",0.9741
same,OR,"rs10941126, allele G, ADD, Imputed, atorvastatin vs pravastatin",0.9741
same,OR,"rs10941126, allele G, DOM, Imputed",1.136
same,OR,"rs10941126, allele G, DOM, Imputed, atorvastatin vs pravastatin",1.136
same,OR,"rs10947871, allele A, DOM, Imputed",2.143
same,OR,"rs10947980, allele G, ADD, Imputed, atorvastatin vs pravastatin",1.004
same,OR,"rs10973012, allele A, DOM, Imputed",1.177
same,OR,"rs10974028, allele G, ADD, Genotyped",1.203
same,OR,"rs11059376, allele T, ADD, Imputed, atorvastatin vs pravastatin",1.086
same,OR,"rs11072995, allele T, REC, Imputed, atorvastatin vs pravastatin",2.198
same,OR,"rs11081202, allele G, REC, Genotyped, atorvastatin vs pravastatin",3.218
same,OR,"rs11099644, allele G, REC, Imputed",0.7905
same,OR,"rs11124962, allele A, DOM, Imputed, atorvastatin vs pravastatin",1.26
same,OR,"rs11138315, allele G, ADD, Imputed",0.5453
same,OR,"rs11149802, allele T, DOM, Imputed",2.011
same,OR,"rs11178531, allele A, ADD, Imputed",0.7197
same,OR,"rs11178531, allele A, ADD, Imputed, atorvastatin vs pravastatin",0.7197
same,OR,"rs11178531, allele A, DOM, Imputed",0.6936
same,OR,"rs11178531, allele A, DOM, Imputed, atorvastatin vs pravastatin",0.6936
same,OR,"rs11178575, allele C, REC, Imputed",2.252
same,OR,"rs11178577, allele T, REC, Imputed",2.243
same,OR,"rs11178583, allele A, ADD, Imputed, atorvastatin vs pravastatin",0.7883
same,OR,"rs11178583, allele A, DOM, Imputed",0.7338
same,OR,"rs11178583, allele A, DOM, Imputed, atorvastatin vs pravastatin",0.7338
same,OR,"rs11178589, allele T, ADD, Imputed, atorvastatin vs pravastatin",0.7796
same,OR,"rs11178589, allele T, DOM, Imputed",0.7215
same,OR,"rs11178589, allele T, DOM, Imputed, atorvastatin vs pravastatin",0.7215
same,OR,"rs11178594, allele C, ADD, Imputed, atorvastatin vs pravastatin",0.7716
same,OR,"rs11178594, allele C, DOM, Imputed",0.7044
same,OR,"rs11178594, allele C, DOM, Imputed, atorvastatin vs pravastatin",0.7044
same,OR,"rs11178602, allele T, ADD, Imputed, atorvastatin vs pravastatin",0.7699
same,OR,"rs11178602, allele T, DOM, Imputed",0.7005
same,OR,"rs11178602, allele T, DOM, Imputed, atorvastatin vs pravastatin",0.7005
same,OR,"rs11178648, allele T, ADD, Imputed, atorvastatin vs pravastatin",0.754
same,OR,"rs11178648, allele T, DOM, Imputed",0.6786
same,OR,"rs11178648, allele T, DOM, Imputed, atorvastatin vs pravastatin",0.6786
same,OR,"rs11221075, allele A, ADD, Imputed",0.4912
same,OR,"rs11221075, allele A, ADD, Imputed, atorvastatin vs pravastatin",0.4912
same,OR,"rs11242020, allele T, DOM, Imputed",0.593
same,OR,"rs11242020, allele T, DOM, Imputed, atorvastatin vs pravastatin",0.593
same,OR,"rs11242021, allele T, DOM, Imputed",0.5934
same,OR,"rs11242021, allele T, DOM, Imputed, atorvastatin vs pravastatin",0.5934
same,OR,"rs11242022, allele T, DOM, Imputed",0.5934
same,OR,"rs11242022, allele T, DOM, Imputed, atorvastatin vs pravastatin",0.5934
same,OR,"rs11242023, allele T, DOM, Imputed",0.5934
same,OR,"rs11242023, allele T, DOM, Imputed, atorvastatin vs pravastatin",0.5934
same,OR,"rs11576627, allele T, ADD, Imputed",1.439
same,OR,"rs11576627, allele T, ADD, Imputed, atorvastatin vs pravastatin",1.439
same,OR,"rs11576627, allele T, DOM, Imputed",1.57
same,OR,"rs11576627, allele T, DOM, Imputed, atorvastatin vs pravastatin",1.57
same,OR,"rs11602189, allele A, DOM, Imputed",0.8739
same,OR,"rs11605163, allele A, DOM, Imputed",1.075
same,OR,"rs11615214, allele G, ADD, Imputed",0.7544
same,OR,"rs11630050, allele G, REC, Imputed, atorvastatin vs pravastatin",1.888
same,OR,"rs11633024, allele C, REC, Imputed, atorvastatin vs pravastatin",1.888
same,OR,"rs11636298, allele G, REC, Imputed, atorvastatin vs pravastatin",1.965
same,OR,"rs11637363, allele C, REC, Imputed, atorvastatin vs pravastatin",1.982
same,OR,"rs11637813, allele A, REC, Imputed, atorvastatin vs pravastatin",1.888
same,OR,"rs11638043, allele C, REC, Imputed, atorvastatin vs pravastatin",1.982
same,OR,"rs11638115, allele A, REC, Imputed, atorvastatin vs pravastatin",2.198
same,OR,"rs11642394, allele C, DOM, Imputed",2.011
same,OR,"rs11644943, allele A, ADD, Imputed",1.464
same,OR,"rs11656608, allele T, DOM, Imputed",0.5127
same,OR,"rs11661309, allele A, ADD, Imputed",0.8005
same,OR,rs11661309 allele A DOM Imputed,0.8571
same,OR,rs11666131 allele A ADD Imputed,1.074
same,OR,"rs11682946, allele A, ADD, Imputed, atorvastatin vs pravastatin",3.591
same,OR,"rs11682946, allele A, DOM, Imputed, atorvastatin vs pravastatin",3.591
same,OR,"rs11717157, allele T, ADD, Imputed, atorvastatin vs pravastatin",1.051
same,OR,"rs11724055, allele A, DOM, Imputed, atorvastatin vs pravastatin",0.5373
same,OR,"rs11743355, allele C, ADD, Imputed, atorvastatin vs pravastatin",0.9741
same,OR,rs11743355 allele C ADD Imputed,0.9741
same,OR,rs11743355 allele C DOM Imputed,1.136
same,OR,"rs11743355 allele C, DOM, Imputed, atorvastatin vs pravastatin",1.136
same,OR,rs11746806 allele T ADD Imputed,0.9741
same,OR,rs11746806 allele T DOM Imputed,1.136
same,OR,"rs11746806 allele T, ADD, Imputed, atorvastatin vs pravastatin",0.9741
same,OR,"rs11746806 allele T, DOM, Imputed, atorvastatin vs pravastatin",1.136
same,OR,rs11746959 allele T ADD Imputed,0.9741
same,OR,rs11746959 allele T DOM Imputed,1.136
same,OR,"rs11746959 allele T, ADD, Imputed, atorvastatin vs pravastatin",0.9741
same,OR,"rs11746959 allele T, DOM, Imputed, atorvastatin vs pravastatin",1.136
same,OR,rs11749272 allele T DOM Imputed,0.593
